In article PMC12586522:
No constants are given. Whether binding was seen depends on the method and setting. In cells and extracts the contact can be indirect. Some entries that bind do so weakly or less than the wild type.

The chains behind the UniProt entries cited, without tags or fusion partners.
UniProt Q8NFU7: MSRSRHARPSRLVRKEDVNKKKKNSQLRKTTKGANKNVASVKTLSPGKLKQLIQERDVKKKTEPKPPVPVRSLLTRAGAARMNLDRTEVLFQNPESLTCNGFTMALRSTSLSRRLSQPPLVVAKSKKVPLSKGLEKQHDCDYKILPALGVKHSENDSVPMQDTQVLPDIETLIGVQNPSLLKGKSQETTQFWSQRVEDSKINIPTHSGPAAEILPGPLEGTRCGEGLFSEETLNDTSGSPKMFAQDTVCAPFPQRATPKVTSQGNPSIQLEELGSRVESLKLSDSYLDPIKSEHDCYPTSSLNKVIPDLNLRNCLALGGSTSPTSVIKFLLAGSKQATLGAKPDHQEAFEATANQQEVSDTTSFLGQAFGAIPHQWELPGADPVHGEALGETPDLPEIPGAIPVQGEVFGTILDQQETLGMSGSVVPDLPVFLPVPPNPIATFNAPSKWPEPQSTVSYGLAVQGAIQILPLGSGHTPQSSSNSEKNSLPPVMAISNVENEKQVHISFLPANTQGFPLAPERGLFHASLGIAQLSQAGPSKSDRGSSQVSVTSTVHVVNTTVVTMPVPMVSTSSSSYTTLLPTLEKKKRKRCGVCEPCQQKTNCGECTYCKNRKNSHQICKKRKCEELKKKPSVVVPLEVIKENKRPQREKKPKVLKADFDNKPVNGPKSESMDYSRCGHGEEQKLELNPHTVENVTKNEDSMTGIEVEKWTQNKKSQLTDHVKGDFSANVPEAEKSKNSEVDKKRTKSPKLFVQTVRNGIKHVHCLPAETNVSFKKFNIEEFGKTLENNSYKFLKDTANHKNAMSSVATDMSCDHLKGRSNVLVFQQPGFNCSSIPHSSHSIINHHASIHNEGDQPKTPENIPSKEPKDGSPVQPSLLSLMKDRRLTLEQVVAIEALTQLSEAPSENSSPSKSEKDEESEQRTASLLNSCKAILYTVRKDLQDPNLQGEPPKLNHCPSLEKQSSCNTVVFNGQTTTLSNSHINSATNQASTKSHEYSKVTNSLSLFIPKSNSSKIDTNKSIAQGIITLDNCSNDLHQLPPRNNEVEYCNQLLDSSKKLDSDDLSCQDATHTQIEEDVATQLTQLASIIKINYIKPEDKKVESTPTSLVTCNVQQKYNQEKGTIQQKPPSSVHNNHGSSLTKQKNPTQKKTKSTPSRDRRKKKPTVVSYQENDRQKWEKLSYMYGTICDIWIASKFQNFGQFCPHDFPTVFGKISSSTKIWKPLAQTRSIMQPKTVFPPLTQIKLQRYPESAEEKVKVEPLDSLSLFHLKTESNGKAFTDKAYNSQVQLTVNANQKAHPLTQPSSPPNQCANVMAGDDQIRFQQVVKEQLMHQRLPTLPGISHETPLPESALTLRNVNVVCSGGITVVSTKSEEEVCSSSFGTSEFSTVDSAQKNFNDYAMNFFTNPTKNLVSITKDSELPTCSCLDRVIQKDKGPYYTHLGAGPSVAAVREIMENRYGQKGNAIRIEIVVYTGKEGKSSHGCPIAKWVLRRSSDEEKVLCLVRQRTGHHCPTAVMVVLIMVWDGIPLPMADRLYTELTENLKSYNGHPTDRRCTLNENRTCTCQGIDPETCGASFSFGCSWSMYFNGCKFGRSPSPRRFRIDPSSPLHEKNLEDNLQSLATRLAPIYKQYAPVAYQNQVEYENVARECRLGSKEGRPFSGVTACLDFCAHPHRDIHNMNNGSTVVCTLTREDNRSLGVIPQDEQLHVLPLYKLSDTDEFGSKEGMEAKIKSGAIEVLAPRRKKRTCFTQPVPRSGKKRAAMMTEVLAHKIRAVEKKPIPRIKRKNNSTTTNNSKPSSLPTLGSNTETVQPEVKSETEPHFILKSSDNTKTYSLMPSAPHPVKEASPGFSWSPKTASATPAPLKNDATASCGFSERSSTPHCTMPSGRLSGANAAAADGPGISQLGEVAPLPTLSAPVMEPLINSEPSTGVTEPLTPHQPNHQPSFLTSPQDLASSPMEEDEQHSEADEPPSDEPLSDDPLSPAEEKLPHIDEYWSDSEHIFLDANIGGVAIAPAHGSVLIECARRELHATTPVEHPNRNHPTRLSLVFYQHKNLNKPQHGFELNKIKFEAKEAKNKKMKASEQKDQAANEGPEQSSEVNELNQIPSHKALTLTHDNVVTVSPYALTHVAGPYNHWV
UniProt Q92769: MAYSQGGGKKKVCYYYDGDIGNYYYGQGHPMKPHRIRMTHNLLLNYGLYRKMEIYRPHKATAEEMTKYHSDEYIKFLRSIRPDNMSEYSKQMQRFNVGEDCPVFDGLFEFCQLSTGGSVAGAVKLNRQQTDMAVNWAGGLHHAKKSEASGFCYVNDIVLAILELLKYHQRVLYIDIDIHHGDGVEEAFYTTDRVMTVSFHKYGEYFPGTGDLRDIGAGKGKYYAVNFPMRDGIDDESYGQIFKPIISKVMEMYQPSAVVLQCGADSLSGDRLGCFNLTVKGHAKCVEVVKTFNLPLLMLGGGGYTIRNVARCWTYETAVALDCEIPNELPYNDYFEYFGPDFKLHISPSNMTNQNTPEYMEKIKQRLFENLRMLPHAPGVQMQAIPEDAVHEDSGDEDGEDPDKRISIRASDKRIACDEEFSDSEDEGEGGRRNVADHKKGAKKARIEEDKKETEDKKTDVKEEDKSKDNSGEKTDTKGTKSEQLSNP
UniProt Q13547: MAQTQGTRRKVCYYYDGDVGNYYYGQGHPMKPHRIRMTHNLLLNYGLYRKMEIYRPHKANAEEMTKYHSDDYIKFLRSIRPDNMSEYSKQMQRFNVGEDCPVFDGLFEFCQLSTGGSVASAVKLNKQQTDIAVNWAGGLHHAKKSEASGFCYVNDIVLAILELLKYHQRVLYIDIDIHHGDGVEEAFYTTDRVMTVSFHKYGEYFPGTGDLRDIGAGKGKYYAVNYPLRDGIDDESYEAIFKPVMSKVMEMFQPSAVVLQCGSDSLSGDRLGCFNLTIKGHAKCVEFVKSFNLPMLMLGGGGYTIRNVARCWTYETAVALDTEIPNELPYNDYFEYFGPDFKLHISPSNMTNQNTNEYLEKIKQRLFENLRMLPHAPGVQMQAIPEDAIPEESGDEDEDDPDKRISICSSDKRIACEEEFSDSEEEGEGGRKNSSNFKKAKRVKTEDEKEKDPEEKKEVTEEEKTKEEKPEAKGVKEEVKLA

Target: Ten eleven translocation 1 (TET1) (human (endogenous in HTori3 and 8505C)) (UniProt Q8NFU7)
Experiment: co-IP; cell lysates (HTori3, 8505C) incubated with primary antibodies or IgG overnight at 4 °C, then 4 h at 4 °C with protein A/G-agarose beads; washed with RIPA buffer; western blotting

Row | binding | Substance
1 | no binding | HDAC2 (from UniProt Q92769 1-488)
2 | binds | histone deacetylase 1 (HDAC1) (from UniProt Q13547 1-482)
